Counter-ions that a name gives are not always drawn. Some of the results follow. Hit calls seldom repeat between salt and free forms of one compound.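 In K562 cells expressing nanoluciferase-fused kinases, luminescence was recorded at 4 h intervals between 2 and 18 h, normalized as percent of control with DMSO at 100% and a positive control at 0%. A significant (2 sigma) signal drop marks a time point as decreased. The authors' rule for a hit is not shown and takes in more than the number of time points.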
Experiments:
Test in all cases: kinase-Nluc reporter destabilization hit call (1 = scored as downregulated) (binary); higher = compound decreases kinase abundance
Conditions in all cases: K562; 2-18 h
[1] = target: EGFR (UniProt P00533)
[2] = target: EGFR_G719S (UniProt P00533)
[3] = target: EGFR_G719S_T790M (UniProt P00533)
[4] = target: EGFR_L718V (UniProt P00533)
[5] = target: EGFR_L858R (UniProt P00533)
[6] = target: EGFR_L861Q (UniProt P00533)
[7] = target: EGFR_T790M (UniProt P00533)
[8] = target: EPHA2 (UniProt P29317)
[9] = target: ERBB3 (UniProt P21860)
[10] = target: ERBB4_R711C (clone: ERBB4_mut) (UniProt Q15303)
[11] = target: ERN1 (UniProt O75460)
[12] = target: FGFR1 (UniProt P11362)
[13] = target: FGFR2 (UniProt P21802)
[14] = target: FGFR3 (UniProt P22607)
[15] = target: FGR (UniProt P09769)
[16] = target: FLT3 (UniProt P36888)
[17] = target: FYN (UniProt P06241)
[18] = target: GSK3A (UniProt P49840)
[19] = target: HER2 (UniProt P04626)
[20] = target: INSRR (UniProt P14616)

Chains of the proteins cited; added tags and fusions are not shown. Lines headed by an entry give the natural chain unless they say otherwise; changes in a name come on top.
UniProt P29317, whole entry: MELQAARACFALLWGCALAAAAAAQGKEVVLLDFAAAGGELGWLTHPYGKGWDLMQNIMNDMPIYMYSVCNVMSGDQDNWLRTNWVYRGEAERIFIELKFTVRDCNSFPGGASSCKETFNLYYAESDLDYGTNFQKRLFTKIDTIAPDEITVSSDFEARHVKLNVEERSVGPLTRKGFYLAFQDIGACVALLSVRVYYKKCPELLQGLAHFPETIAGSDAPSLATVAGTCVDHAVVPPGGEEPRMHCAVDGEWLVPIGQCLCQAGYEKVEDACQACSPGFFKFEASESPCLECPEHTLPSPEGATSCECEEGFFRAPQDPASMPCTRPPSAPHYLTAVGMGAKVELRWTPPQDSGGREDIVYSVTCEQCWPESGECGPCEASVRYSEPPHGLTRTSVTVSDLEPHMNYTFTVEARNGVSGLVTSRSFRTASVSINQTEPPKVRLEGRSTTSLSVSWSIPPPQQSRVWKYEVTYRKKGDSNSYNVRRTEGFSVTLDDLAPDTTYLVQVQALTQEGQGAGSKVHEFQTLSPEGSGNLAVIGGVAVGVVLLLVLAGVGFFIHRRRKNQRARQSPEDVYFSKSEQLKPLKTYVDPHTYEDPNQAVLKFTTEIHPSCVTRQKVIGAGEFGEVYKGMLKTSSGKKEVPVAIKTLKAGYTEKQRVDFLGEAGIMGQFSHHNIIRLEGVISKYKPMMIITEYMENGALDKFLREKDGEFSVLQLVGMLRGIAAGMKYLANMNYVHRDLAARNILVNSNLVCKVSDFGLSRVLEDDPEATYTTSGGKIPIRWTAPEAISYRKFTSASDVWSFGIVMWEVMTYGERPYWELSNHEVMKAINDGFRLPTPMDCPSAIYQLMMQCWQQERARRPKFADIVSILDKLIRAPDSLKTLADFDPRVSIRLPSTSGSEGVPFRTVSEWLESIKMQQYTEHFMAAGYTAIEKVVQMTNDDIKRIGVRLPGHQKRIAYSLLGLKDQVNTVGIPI
UniProt O75460: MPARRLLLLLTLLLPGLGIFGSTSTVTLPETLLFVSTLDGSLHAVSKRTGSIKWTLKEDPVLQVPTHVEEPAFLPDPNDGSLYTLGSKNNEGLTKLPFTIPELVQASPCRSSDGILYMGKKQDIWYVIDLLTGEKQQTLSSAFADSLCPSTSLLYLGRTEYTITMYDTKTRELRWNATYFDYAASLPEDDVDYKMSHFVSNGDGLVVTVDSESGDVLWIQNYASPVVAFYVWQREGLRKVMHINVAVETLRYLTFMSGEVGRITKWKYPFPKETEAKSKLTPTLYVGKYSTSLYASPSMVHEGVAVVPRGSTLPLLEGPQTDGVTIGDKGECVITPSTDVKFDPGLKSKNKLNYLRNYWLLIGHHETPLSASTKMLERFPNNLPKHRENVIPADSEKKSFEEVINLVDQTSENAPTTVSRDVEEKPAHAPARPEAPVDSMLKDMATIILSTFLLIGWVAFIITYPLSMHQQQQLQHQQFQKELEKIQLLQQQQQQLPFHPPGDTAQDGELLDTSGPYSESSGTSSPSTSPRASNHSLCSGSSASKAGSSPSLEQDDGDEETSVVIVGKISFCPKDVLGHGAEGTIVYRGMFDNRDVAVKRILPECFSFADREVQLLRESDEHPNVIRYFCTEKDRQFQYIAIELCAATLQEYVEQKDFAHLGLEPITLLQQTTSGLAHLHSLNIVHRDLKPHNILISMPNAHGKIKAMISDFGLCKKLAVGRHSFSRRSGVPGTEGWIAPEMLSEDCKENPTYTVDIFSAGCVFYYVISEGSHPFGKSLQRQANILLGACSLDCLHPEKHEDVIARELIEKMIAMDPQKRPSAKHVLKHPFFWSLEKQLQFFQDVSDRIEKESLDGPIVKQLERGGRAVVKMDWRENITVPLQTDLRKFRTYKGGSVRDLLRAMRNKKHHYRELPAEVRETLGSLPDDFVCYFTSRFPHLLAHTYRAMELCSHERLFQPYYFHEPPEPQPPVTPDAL
UniProt P22607, whole entry, looked up: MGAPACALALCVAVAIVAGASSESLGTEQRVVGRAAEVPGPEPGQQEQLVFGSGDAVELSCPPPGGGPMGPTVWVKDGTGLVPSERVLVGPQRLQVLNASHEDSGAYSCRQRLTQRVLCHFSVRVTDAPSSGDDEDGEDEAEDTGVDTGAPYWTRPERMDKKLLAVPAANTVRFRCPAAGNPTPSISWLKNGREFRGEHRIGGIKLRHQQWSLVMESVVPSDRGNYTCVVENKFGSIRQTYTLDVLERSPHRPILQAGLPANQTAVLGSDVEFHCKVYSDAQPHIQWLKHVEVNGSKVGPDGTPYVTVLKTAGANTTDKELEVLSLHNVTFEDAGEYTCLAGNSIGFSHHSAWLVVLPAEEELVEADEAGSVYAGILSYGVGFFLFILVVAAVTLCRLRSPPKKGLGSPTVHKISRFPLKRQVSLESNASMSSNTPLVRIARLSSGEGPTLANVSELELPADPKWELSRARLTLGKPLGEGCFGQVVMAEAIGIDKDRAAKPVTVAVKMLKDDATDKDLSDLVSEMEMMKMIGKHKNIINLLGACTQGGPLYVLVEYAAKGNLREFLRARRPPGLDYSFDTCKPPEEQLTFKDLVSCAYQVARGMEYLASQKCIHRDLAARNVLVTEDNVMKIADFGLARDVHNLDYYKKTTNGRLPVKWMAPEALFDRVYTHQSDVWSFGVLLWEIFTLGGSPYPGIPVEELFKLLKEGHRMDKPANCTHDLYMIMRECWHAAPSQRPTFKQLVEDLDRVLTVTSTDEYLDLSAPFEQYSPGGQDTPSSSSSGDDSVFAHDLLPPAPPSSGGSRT
UniProt P36888, whole entry: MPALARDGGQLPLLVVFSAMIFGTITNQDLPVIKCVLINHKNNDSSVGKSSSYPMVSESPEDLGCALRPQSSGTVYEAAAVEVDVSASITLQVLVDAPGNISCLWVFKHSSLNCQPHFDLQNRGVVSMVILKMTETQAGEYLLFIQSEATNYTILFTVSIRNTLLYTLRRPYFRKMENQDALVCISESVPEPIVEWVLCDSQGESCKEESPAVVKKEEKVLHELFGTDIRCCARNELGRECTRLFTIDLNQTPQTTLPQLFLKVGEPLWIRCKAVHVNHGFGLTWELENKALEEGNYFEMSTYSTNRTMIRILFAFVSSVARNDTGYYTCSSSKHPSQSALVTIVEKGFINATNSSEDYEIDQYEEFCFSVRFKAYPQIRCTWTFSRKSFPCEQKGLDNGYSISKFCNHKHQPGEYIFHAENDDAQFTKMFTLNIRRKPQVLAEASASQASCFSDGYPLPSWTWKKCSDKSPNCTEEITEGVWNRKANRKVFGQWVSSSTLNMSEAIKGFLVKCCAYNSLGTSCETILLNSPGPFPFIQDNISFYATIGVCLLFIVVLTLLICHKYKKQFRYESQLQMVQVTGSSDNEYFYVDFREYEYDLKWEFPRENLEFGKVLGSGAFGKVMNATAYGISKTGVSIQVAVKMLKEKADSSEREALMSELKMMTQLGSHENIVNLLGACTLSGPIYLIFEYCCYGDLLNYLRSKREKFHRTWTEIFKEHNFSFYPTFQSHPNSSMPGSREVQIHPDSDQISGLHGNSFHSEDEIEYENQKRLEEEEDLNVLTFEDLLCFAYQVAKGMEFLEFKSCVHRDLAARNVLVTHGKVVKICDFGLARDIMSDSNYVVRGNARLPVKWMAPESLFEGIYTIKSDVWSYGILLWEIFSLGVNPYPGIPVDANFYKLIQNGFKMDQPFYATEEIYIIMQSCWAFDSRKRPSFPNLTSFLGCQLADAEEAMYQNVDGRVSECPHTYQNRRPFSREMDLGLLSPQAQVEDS
UniProt P06241, whole entry, looked up: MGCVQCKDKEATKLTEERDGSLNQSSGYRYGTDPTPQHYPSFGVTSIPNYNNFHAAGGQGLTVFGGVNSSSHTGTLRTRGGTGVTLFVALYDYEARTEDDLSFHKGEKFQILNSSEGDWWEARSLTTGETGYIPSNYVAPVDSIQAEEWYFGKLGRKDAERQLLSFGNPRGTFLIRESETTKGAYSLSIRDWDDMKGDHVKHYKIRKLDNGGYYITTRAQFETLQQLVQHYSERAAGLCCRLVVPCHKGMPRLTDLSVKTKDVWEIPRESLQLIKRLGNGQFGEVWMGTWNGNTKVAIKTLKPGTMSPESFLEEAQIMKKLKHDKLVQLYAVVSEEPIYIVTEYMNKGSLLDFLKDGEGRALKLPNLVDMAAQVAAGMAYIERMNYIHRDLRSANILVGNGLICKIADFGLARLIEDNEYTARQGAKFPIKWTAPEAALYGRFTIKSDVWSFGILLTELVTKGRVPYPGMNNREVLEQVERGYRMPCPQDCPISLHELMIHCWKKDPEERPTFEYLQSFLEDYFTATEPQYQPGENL
UniProt P49840: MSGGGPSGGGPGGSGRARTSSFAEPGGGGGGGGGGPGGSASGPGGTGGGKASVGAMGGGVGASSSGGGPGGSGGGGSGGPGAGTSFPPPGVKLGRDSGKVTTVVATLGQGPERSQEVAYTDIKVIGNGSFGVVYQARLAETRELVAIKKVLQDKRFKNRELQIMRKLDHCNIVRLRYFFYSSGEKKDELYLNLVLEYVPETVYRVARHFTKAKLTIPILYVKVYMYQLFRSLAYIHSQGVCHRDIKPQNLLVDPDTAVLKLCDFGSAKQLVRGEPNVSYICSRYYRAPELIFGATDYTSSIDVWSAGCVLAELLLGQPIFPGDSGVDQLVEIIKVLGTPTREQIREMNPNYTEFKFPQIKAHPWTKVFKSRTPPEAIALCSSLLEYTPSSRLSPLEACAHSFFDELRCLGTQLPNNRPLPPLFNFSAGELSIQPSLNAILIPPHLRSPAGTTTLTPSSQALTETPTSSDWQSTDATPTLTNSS
UniProt P14616: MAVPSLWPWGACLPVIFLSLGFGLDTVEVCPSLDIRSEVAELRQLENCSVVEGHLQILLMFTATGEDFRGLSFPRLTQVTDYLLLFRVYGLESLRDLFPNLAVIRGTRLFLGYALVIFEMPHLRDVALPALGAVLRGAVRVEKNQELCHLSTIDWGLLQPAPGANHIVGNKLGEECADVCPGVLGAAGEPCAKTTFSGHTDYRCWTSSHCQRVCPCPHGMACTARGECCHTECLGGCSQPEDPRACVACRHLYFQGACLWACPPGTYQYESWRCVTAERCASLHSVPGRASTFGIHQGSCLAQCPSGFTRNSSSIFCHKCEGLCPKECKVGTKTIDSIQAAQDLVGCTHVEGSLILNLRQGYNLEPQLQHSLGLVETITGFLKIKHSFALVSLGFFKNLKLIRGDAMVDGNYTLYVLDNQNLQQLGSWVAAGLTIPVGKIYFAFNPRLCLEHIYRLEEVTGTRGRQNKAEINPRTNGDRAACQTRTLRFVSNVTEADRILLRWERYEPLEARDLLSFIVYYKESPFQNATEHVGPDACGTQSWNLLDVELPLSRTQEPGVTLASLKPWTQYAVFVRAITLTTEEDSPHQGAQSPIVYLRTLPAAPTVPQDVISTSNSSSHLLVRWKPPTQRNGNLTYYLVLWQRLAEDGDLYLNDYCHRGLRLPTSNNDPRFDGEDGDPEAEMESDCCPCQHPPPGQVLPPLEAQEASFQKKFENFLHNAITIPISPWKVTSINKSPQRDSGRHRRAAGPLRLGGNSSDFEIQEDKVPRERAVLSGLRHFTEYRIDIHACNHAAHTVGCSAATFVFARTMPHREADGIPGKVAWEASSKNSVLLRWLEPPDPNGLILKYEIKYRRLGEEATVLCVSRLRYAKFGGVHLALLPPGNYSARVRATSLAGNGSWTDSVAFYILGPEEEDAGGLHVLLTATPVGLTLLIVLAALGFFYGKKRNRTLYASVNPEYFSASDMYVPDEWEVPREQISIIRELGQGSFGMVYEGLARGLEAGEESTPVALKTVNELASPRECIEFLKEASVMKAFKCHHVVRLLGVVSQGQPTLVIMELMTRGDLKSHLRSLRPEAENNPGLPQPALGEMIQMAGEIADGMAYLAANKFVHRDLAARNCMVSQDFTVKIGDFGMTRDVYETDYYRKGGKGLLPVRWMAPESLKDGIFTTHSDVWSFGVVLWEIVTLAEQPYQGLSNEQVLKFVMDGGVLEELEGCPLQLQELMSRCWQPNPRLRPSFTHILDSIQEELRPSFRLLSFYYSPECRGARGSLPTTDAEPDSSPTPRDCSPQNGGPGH

Row | SMILES | kinase-Nluc reporter destabilization hit call [1] | kinase-Nluc reporter destabilization hit call [2] | kinase-Nluc reporter destabilization hit call [3] | kinase-Nluc reporter destabilization hit call [4] | kinase-Nluc reporter destabilization hit call [5] | kinase-Nluc reporter destabilization hit call [6] | kinase-Nluc reporter destabilization hit call [7] | kinase-Nluc reporter destabilization hit call [8] | kinase-Nluc reporter destabilization hit call [9] | kinase-Nluc reporter destabilization hit call [10] | kinase-Nluc reporter destabilization hit call [11] | kinase-Nluc reporter destabilization hit call [12] | kinase-Nluc reporter destabilization hit call [13] | kinase-Nluc reporter destabilization hit call [14] | kinase-Nluc reporter destabilization hit call [15] | kinase-Nluc reporter destabilization hit call [16] | kinase-Nluc reporter destabilization hit call [17] | kinase-Nluc reporter destabilization hit call [18] | kinase-Nluc reporter destabilization hit call [19] | kinase-Nluc reporter destabilization hit call [20]
1 | CCOC(=O)C1=C[C@]2(CC)CCCN3CCc4c(n1c1ccccc41)[C@@H]32 [Vinpocetine] (10 µM) | inactive: 0 | inactive: 0 | inactive: 0 | inactive: 0 | inactive: 0 | inactive: 0 | inactive: 0 | inactive: 0 | inactive: 0 | inactive: 0 | inactive: 0 | inactive: 0 | inactive: 0 | inactive: 0 | inactive: 0 | inactive: 0 | inactive: 0 | inactive: 0 | inactive: 0 | inactive: 0
2 | O=C(NCc1cccc(O)c1)c1cc2cc(F)ccc2[nH]1 (10 µM) | inactive: 0 | inactive: 0 | inactive: 0 | inactive: 0 | inactive: 0 | inactive: 0 | inactive: 0 | inactive: 0 | inactive: 0 | inactive: 0 | inactive: 0 | inactive: 0 | inactive: 0 | inactive: 0 | inactive: 0 | inactive: 0 | inactive: 0 | inactive: 0 | inactive: 0 | inactive: 0
3 | O=C(c1ccc(NS(=O)(=O)c2cccc3cccnc23)cc1)N1CCN(CC2CC2)CC1 [Mitapivat] (10 µM) | inactive: 0 | inactive: 0 | inactive: 0 | inactive: 0 | inactive: 0 | inactive: 0 | inactive: 0 | inactive: 0 | inactive: 0 | inactive: 0 | inactive: 0 | inactive: 0 | inactive: 0 | inactive: 0 | inactive: 0 | inactive: 0 | inactive: 0 | inactive: 0 | inactive: 0 | inactive: 0
4 | CCOc1cc(C(=O)N2CCC(N3CCN(C)CC3)CC2)ccc1Nc1ncc2c(n1)N(S(C)(=O)=O)c1ccccc1C(=O)N2C (10 µM) | inactive: 0 | inactive: 0 | inactive: 0 | inactive: 0 | inactive: 0 | inactive: 0 | inactive: 0 | inactive: 0 | inactive: 0 | inactive: 0 | inactive: 0 | inactive: 0 | inactive: 0 | inactive: 0 | inactive: 0 | inactive: 0 | inactive: 0 | inactive: 0 | inactive: 0 | inactive: 0
5 | O=C1NC(=O)C(c2ccccc2[N+](=O)[O-])=C1Nc1ccc(O)c(Cl)c1 (10 µM) | inactive: 0 | inactive: 0 | inactive: 0 | inactive: 0 | inactive: 0 | inactive: 0 | inactive: 0 | inactive: 0 | inactive: 0 | inactive: 0 | inactive: 0 | inactive: 0 | inactive: 0 | inactive: 0 | inactive: 0 | inactive: 0 | inactive: 0 | inactive: 0 | inactive: 0 | inactive: 0
6 | C=CC(=O)Nc1cccc(Oc2nc(Nc3ccc(N4CCN(C)CC4)cc3)nc3ccsc23)c1 [Olmutinib] (2.5 µM) | inactive: 0 | inactive: 0 | inactive: 0 | inactive: 0 | inactive: 0 | inactive: 0 | inactive: 0 | inactive: 0 | inactive: 0 | inactive: 0 | inactive: 0 | inactive: 0 | inactive: 0 | inactive: 0 | inactive: 0 | inactive: 0 | inactive: 0 | inactive: 0 | inactive: 0 | inactive: 0
7 | Cc1nc(Nc2ncc(C(=O)Nc3c(C)cccc3Cl)s2)cc(N2CCN(C(=O)CCCCCCC(=O)N[C@H](C(=O)N3C[C@H](O)C[C@H]3C(=O)NCc3ccc(-c4scnc4C)cc3)C(C)(C)C)CC2)n1 (2.5 µM) | inactive: 0 | inactive: 0 | inactive: 0 | inactive: 0 | inactive: 0 | inactive: 0 | inactive: 0 | inactive: 0 | inactive: 0 | inactive: 0 | inactive: 0 | inactive: 0 | inactive: 0 | inactive: 0 | active: 1 | inactive: 0 | inactive: 0 | inactive: 0 | inactive: 0 | inactive: 0
8 | CNC(=O)Nc1cc(Oc2cncc(C)c2)c(-c2ccc(OCC(C)(C)O)nc2)cn1 (2.5 µM) | inactive: 0 | inactive: 0 | inactive: 0 | inactive: 0 | inactive: 0 | inactive: 0 | inactive: 0 | inactive: 0 | inactive: 0 | inactive: 0 | inactive: 0 | inactive: 0 | inactive: 0 | inactive: 0 | inactive: 0 | inactive: 0 | inactive: 0 | inactive: 0 | inactive: 0 | inactive: 0
9 | O=S(=O)(c1cccc2c(Cl)cccc12)N1CCCNCC1 (10 µM) | inactive: 0 | inactive: 0 | inactive: 0 | inactive: 0 | inactive: 0 | inactive: 0 | inactive: 0 | inactive: 0 | inactive: 0 | inactive: 0 | inactive: 0 | inactive: 0 | inactive: 0 | inactive: 0 | inactive: 0 | inactive: 0 | inactive: 0 | inactive: 0 | inactive: 0 | inactive: 0
10 | CC(=O)Nc1nc(C)c(-c2ccc(Cl)c(S(=O)(=O)NCCO)c2)s1 (10 µM) | inactive: 0 | inactive: 0 | inactive: 0 | inactive: 0 | inactive: 0 | inactive: 0 | inactive: 0 | inactive: 0 | inactive: 0 | inactive: 0 | inactive: 0 | inactive: 0 | inactive: 0 | inactive: 0 | inactive: 0 | inactive: 0 | inactive: 0 | inactive: 0 | inactive: 0 | inactive: 0
11 | CCCC[C@H](CO)Nc1nc(NC)ncc1OC [Interferon receptor inducer-1] (10 µM) | inactive: 0 | inactive: 0 | inactive: 0 | inactive: 0 | inactive: 0 | inactive: 0 | inactive: 0 | inactive: 0 | inactive: 0 | inactive: 0 | inactive: 0 | inactive: 0 | inactive: 0 | inactive: 0 | inactive: 0 | inactive: 0 | inactive: 0 | inactive: 0 | inactive: 0 | inactive: 0
12 | C[C@@H]1CC[C@]2(C(=O)O)CC[C@]3(C)C(=CC[C@@H]4[C@@]5(C)CC[C@H](O)[C@@](C)(CO)[C@@H]5CC[C@]43C)[C@@H]2[C@]1(C)O [Rotundic acid] (10 µM) | inactive: 0 | inactive: 0 | inactive: 0 | inactive: 0 | inactive: 0 | inactive: 0 | inactive: 0 | inactive: 0 | inactive: 0 | inactive: 0 | inactive: 0 | inactive: 0 | inactive: 0 | inactive: 0 | inactive: 0 | inactive: 0 | inactive: 0 | inactive: 0 | inactive: 0 | inactive: 0
13 | Cc1c(Br)c(Br)c2c3c1nc(N1CCNCC1)n3CCC2 [SEL120-34A (monohydrochloride)] (2.5 µM) | inactive: 0 | inactive: 0 | inactive: 0 | inactive: 0 | inactive: 0 | inactive: 0 | inactive: 0 | inactive: 0 | inactive: 0 | inactive: 0 | inactive: 0 | inactive: 0 | inactive: 0 | inactive: 0 | inactive: 0 | inactive: 0 | inactive: 0 | inactive: 0 | inactive: 0 | inactive: 0
14 | O=C1NCCSc2c1sc1ccc(O)cc21 (2.5 µM) | inactive: 0 | inactive: 0 | inactive: 0 | inactive: 0 | inactive: 0 | inactive: 0 | inactive: 0 | inactive: 0 | inactive: 0 | inactive: 0 | inactive: 0 | inactive: 0 | inactive: 0 | inactive: 0 | inactive: 0 | inactive: 0 | inactive: 0 | inactive: 0 | inactive: 0 | inactive: 0
15 | C=CC(=O)N1CCN(c2nc(OC[C@@H]3CCCN3C)nc3c2CCN(c2cccc4cccc(C)c24)C3)C[C@@H]1CC#N (2.5 µM) | inactive: 0 | inactive: 0 | inactive: 0 | inactive: 0 | inactive: 0 | inactive: 0 | inactive: 0 | inactive: 0 | inactive: 0 | inactive: 0 | inactive: 0 | inactive: 0 | inactive: 0 | inactive: 0 | inactive: 0 | inactive: 0 | inactive: 0 | inactive: 0 | inactive: 0 | inactive: 0
16 | CS(=O)(=O)N1CCc2c(-c3cnc(N)nc3)nc(N3CCOCC3)nc21 (10 µM) | inactive: 0 | inactive: 0 | inactive: 0 | inactive: 0 | inactive: 0 | inactive: 0 | inactive: 0 | inactive: 0 | inactive: 0 | inactive: 0 | inactive: 0 | inactive: 0 | inactive: 0 | inactive: 0 | inactive: 0 | inactive: 0 | inactive: 0 | inactive: 0 | inactive: 0 | inactive: 0
17 | COc1cccc2cc(-c3nc([C@H]4CC[C@H](C(=O)O)CC4)n4ncnc(N)c34)[nH]c12 (2.5 µM) | inactive: 0 | inactive: 0 | inactive: 0 | inactive: 0 | inactive: 0 | inactive: 0 | inactive: 0 | inactive: 0 | inactive: 0 | inactive: 0 | inactive: 0 | inactive: 0 | inactive: 0 | inactive: 0 | inactive: 0 | inactive: 0 | inactive: 0 | inactive: 0 | inactive: 0 | inactive: 0
18 | C=CC(=O)Nc1cccc(Oc2nc(Nc3ccc(N4CCN(C)CC4)cc3)ncc2Cl)c1 (2.5 µM) | inactive: 0 | inactive: 0 | inactive: 0 | inactive: 0 | inactive: 0 | inactive: 0 | inactive: 0 | inactive: 0 | inactive: 0 | inactive: 0 | inactive: 0 | inactive: 0 | inactive: 0 | inactive: 0 | inactive: 0 | inactive: 0 | inactive: 0 | inactive: 0 | active: 1 | inactive: 0

2 compounds drawn at random from the list so far, as already listed:
Row | SMILES | kinase-Nluc reporter destabilization hit call [1] | kinase-Nluc reporter destabilization hit call [2] | kinase-Nluc reporter destabilization hit call [3] | kinase-Nluc reporter destabilization hit call [4] | kinase-Nluc reporter destabilization hit call [5] | kinase-Nluc reporter destabilization hit call [6] | kinase-Nluc reporter destabilization hit call [7] | kinase-Nluc reporter destabilization hit call [8] | kinase-Nluc reporter destabilization hit call [9] | kinase-Nluc reporter destabilization hit call [10] | kinase-Nluc reporter destabilization hit call [11] | kinase-Nluc reporter destabilization hit call [12] | kinase-Nluc reporter destabilization hit call [13] | kinase-Nluc reporter destabilization hit call [14] | kinase-Nluc reporter destabilization hit call [15] | kinase-Nluc reporter destabilization hit call [16] | kinase-Nluc reporter destabilization hit call [17] | kinase-Nluc reporter destabilization hit call [18] | kinase-Nluc reporter destabilization hit call [19] | kinase-Nluc reporter destabilization hit call [20]
17 | COc1cccc2cc(-c3nc([C@H]4CC[C@H](C(=O)O)CC4)n4ncnc(N)c34)[nH]c12 (2.5 µM) | inactive: 0 | inactive: 0 | inactive: 0 | inactive: 0 | inactive: 0 | inactive: 0 | inactive: 0 | inactive: 0 | inactive: 0 | inactive: 0 | inactive: 0 | inactive: 0 | inactive: 0 | inactive: 0 | inactive: 0 | inactive: 0 | inactive: 0 | inactive: 0 | inactive: 0 | inactive: 0
13 | Cc1c(Br)c(Br)c2c3c1nc(N1CCNCC1)n3CCC2 [SEL120-34A (monohydrochloride)] (2.5 µM) | inactive: 0 | inactive: 0 | inactive: 0 | inactive: 0 | inactive: 0 | inactive: 0 | inactive: 0 | inactive: 0 | inactive: 0 | inactive: 0 | inactive: 0 | inactive: 0 | inactive: 0 | inactive: 0 | inactive: 0 | inactive: 0 | inactive: 0 | inactive: 0 | inactive: 0 | inactive: 0

Source: the supplement of paper PMC12823440, “Inhibitors supercharge kinase turnover through native proteolytic circuits” (Nature, 2025)
